According to article PMC10094921 (International Journal of Molecular Sciences, 2023):

Test: general procedure: Fmoc solid-phase peptide synthesis; Rink Amide-MBHA resin (substitution 0.285 mmol/g and 0.36 mmol/g); HCTU/HATU with DIEA
Conditions: whole synthesis, 214 nm, scale of the general procedure 0.1 or 0.2 mmol

Substance	final HPLC purity [%]
PEPTIDE1{[Pal].[PEG6].V.I.K.L.S.G.R.E.L.V.R.A.Q.I.A.I.S.G.M.S.T.W.S.K.R.S.L.[am]}$$$$V2.0	99.92
PEPTIDE1{K.[PEG12].V.I.K.L.S.G.R.E.L.V.R.A.Q.I.A.I.S.G.M.S.T.W.S.K.R.S.L.[am]}|PEPTIDE2{[Pal].[gGlu]}$PEPTIDE1,PEPTIDE2,1:R3-2:R2$$$V2.0	99.72
PEPTIDE1{E.Y.E.K.E.Y.E.V.I.K.L.S.G.R.E.L.V.R.A.Q.I.A.I.S.G.M.S.T.W.S.K.R.S.L.[am]}|PEPTIDE2{[Pal]}$PEPTIDE1,PEPTIDE2,4:R3-1:R2$$$V2.0	97.68

HELM strings list residues between dots; [ac] is acetyl, [am] amide, other brackets name non-standard units.
